Source: patent US9018213B2, “Alicyclic[c] benzopyrone derivatives and uses thereof” (Huazhong University of Science & Technology, priority 2011, dated 2015)

System: KM mice
Assay: Catalepsy assay
Conditions: ratio of ED50 values

SMILES | catalepsy/MK-801 induced high activity | catalepsy/apomorphine induced clambering
O=c1oc2c(Cl)c(OCCCCN3CCN(c4nsc5ccccc45)CC3)ccc2c2c1CCC2 [Compound 14, 7-{4-[4-(3-(1,2-benzisothiazole)-1-piperazinyl)-n-butoxy]}-6-chloro-2,3-dihydro-1H-cyclopenteno[c]benzopyran-4-one] | 230.79 | 757
O=C1CCc2ccc(OCCCCN3CCN(c4cccc(Cl)c4Cl)CC3)cc2N1 [aripiprazole] | 20.00 | 11.43
Cc1cc2c(s1)Nc1ccccc1N=C2N1CCN(C)CC1 [olanzapine] | – | 20.27
CN1CCN(C2=Nc3cc(Cl)ccc3Nc3ccccc32)CC1 [clozapine] | >21.93 and 21.93 | >5.58
O=C(CCCN1CCC(O)(c2ccc(Cl)cc2)CC1)c1ccc(F)cc1 [haloperidol] | 4.40 | 4.89
OCCOCCN1CCN(C2=Nc3ccccc3Sc3ccccc32)CC1 [quetiapine] | 79.21 | 396.04
O=c1oc2cc(OCCCN3CCC(c4noc5cc(F)ccc45)CC3)ccc2c2c1CCC2 [Compound 5, 7-{3-[4-(3-(6-fluoro-benzisoxazole)-1-piperidyl)-n-propoxy]}-2,3-dihydro-1H-cyclopenteno[c]benzopyran-4-one] | 480.91 | 247.53
O=C1Cc2cc(CCN3CCN(c4nsc5ccccc45)CC3)c(Cl)cc2N1 [ziprasidone] | 54.29 | 82.16
O=c1oc2c(Cl)c(OCCCCN3CCC(c4noc5cc(F)ccc45)CC3)ccc2c2c1CCC2 [Compound 15, 7-{4-[4-(3-(6-fluoro-benzisoxazole)-1-piperidyl)-butoxy]}-6-chloro-2,3-dihydro-1H-cyclopenteno[c]benzopyran-4-one] | 79.09 | 176.54
COc1ccccc1N1CCN(CCCCOc2ccc3c4c(c(=O)oc3c2)CCCC4)CC1 [Compound 19, 3-{4-[4-(2-methoxyphenyl)piperazin-1-yl]-butoxy}-7,8,9,10-tetrahydrobenzo[c]benzopyran-6-one] | 66.53 | 1042.33
COc1ccccc1N1CCN(CCCCOc2ccc3c4c(c(=O)oc3c2)CCC4)CC1 [Compound 7, 7-{4-[4-(2-methoxyphenyl)piperazin-1-yl]-butoxy}-2,3-dihydro-1H-cyclopenteno[c]benzopyran-4-one] | 127.56 | 2011.46

Where “and” joins values, the source holds several entries; their conditions need not be identical. Identical values can stand only once.
